# Experimental data taken from PubChem BioAssay AID493014 (National Center for Advancing Translational Sciences (NCATS), 2011).
# This is one part of the list. The main result of the screen is listed elsewhere. These columns were measured beside it and carry no call. The list favours compounds with an active or inconclusive main result. Words in brackets tell the shape of the fitted curve; partial curves, single points and poor fits give uncertain potencies.
# Experiment: qHTS Assay to Find Inhibitors of Chronic Active B-Cell Receptor Signaling
# Details: ABC-DLBCL IkBa-CBG/CBR reporter, luminescence ratio (green luciferase fused to IkBa over red control in TMD8 lymphoma cells), 4 h
# In short: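 TMD8 human ABC-DLBCL cells with doxycycline-inducible IκBα–green luciferase fusion and unfused red luciferase, in 0.5% FBS medium; compounds up to 46 uM, 4 h at 37C. Green/red luminescence ratio, filter-overlap corrected, fitted to concentration-response curves.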
# [1] = measured here: CBR red luminescence, cell number
# [2] = measured here: IkBa-CBG green luminescence
SMILES,AC50 [1],AC50 [2]
O=C1c2ccccc2C(=O)N1CCCc1cn(C[C@H]2CC[C@H](Cn3cc(CCCN4C(=O)c5ccccc5C4=O)nn3)O2)nn1,"10.3 µM [rising, partial curve, poor fit]",–
Cc1ccc(SC(C)c2nc(-c3ccncc3)no2)cc1 (configuration not stated),"20.6 µM [rising, partial curve, poor fit]",–
COC(=O)CC(=O)CSc1nc2c(cc1C#N)CCCCC2,"0.461 µM [falling, full curve]",–
O=c1c2ccc(Cl)cc2nc2n1CC/C2=C\c1cccc(O)c1,"8.91 µM [falling, partial curve, poor fit]",–
O=C(Nc1ccc(F)cc1)c1ccccc1NS(=O)(=O)N1CCCC1,"4.47 µM [falling, full curve, poor fit]",–
CCC(C)(C)n1nnnc1C(c1cc2ccc(OC)cc2[nH]c1=O)N1CCc2ccccc2C1 (configuration not stated),"29.1 µM [falling, single point]",–
COc1ccc(NC(=S)NCC(c2ccco2)N2CCCC2)cc1 (configuration not stated),"35.5 µM [rising, partial curve, poor fit]",–
COc1ccccc1NC(=S)NN1CCN(C)CC1,"9.2 µM [falling, partial curve]",–
CCc1cccc(NC(=O)C2CCCN2S(=O)(=O)c2ccc3c(c2)CC(C)N3C(C)=O)c1 (configuration not stated),"2 µM [rising, single point]",–
O=C(NCCc1ccc(F)cc1)c1ccc2nccnc2c1,"25.9 µM [falling, partial curve]",–
CCCCC(=O)Nc1c(-c2cccc(OC)c2)c(=O)c2ccccc2n1C,"35.5 µM [rising, partial curve, poor fit]",–
N#CC1=C(N)Oc2n[nH]c(-c3cccs3)c2C1C1CCCCC1 (configuration not stated),"16.4 µM [falling, partial curve, poor fit]",–
Cc1ccc(C)c(NC(=S)NNC(=O)c2csc(C(C)C)c2)c1,"29.1 µM [falling, single point]",–
CC(=O)C(CC(=O)N1CCCc2ccccc21)C(=O)Nc1ccc(F)cc1 (configuration not stated),"29.1 µM [falling, single point]",–
Cc1ccc(S(=O)(=O)c2c(N)n(C)c3nc4ccccc4nc23)cc1,"13 µM [falling, partial curve]","7.31 µM [rising, partial curve, poor fit]"
Cc1nc2scc(-c3ccc(C(C)C)cc3)c2c(=O)n1N,"20 µM [rising, single point]",–
CCC(CC)C(=O)Nc1nc(-c2ccc3c(c2)CCN3C(=O)C2CC2)c(C)s1,"13 µM [rising, single point]",–
Cc1cccc(C)c1-n1nnnc1C1(Nc2ccccc2)CCCCC1,"0.92 µM [falling, full curve, poor fit]",–
CCC1CCc2c(sc(NC(=O)C3CC=CCC3C(=O)O)c2C#N)C1 (configuration not stated),"20.6 µM [falling, partial curve]",–
Oc1ccc(COC2CCCC2)c2cccnc12,–,"3.26 µM [falling, full curve]"
CCN(Cc1nc2cc(Cl)ccc2c(=O)[nH]1)C(=O)C1CC(=O)N(c2cccc3ccccc23)C1 (configuration not stated),"2.91 µM [falling, partial curve, poor fit]",–
CCC(C)(C)n1nnnc1C(c1ccc(O)c(OC)c1)N1CCN(c2nc3ccccc3s2)CC1 (configuration not stated),"20 µM [falling, single point]",–

SMILES,AC50 [1],AC50 [2]
COc1ccc(CCN(C)C(=O)CCCN2C(=O)c3cccc4cccc(c34)C2=O)cc1OC,"4.47 µM [rising, full curve, poor fit]",–
NC(=O)c1ccccc1Nc1nc2nc3ccccc3c(=O)n2cc1Br,"7.94 µM [falling, partial curve, poor fit]",–
NNC(=O)CCN1CCN(C(c2ccccc2)c2ccccc2)CC1,"5.62 µM [rising, single point]",–
c1ccc(COc2ccc(Nc3ncnc4nc[nH]c34)cc2)cc1,"5.17 µM [rising, full curve, poor fit]",–
CCCn1c(=O)c2ccccc2n2c(SCC(=O)c3ccccc3)nnc12,"20.6 µM [rising, partial curve, poor fit]",–
CC(=O)Nc1c(O)c2ccccc2[nH]c1=O,"3.16 µM [rising, partial curve, poor fit]",–
O=C(Cn1c(=O)sc2ccccc21)NCc1ccco1,"2.82 µM [rising, partial curve]",–
Cc1cnn(-c2nc(-c3cccs3)cc(C(F)(F)F)n2)c1,"0.366 µM [falling, partial curve, poor fit]",–
COc1ccc(SCC(=O)c2cc(C)c(OC(=S)N(C)C)c(C)c2)cc1,"32.6 µM [falling, single point]",–
Cc1onc(-c2ccccc2)c1C(=O)NCCc1ccc(Cl)cc1,"0.708 µM [rising, full curve, poor fit]",–
NC(=O)C(=O)N/N=C/c1c2ccccc2cc2ccccc12,"15.8 µM [falling, partial curve, poor fit]",–
CCCC(=O)Nc1ccc(C(=O)N/N=C/c2cccnc2)cc1,"29.1 µM [rising, single point]","32.6 µM [falling, partial curve, poor fit]"
COc1ccc(CNc2nc3nc(C)c(Cl)c(=O)n3[nH]2)cc1OC,"13 µM [falling, partial curve, poor fit]",–
Cc1sc2nc(CN(C(=O)NC3CCCCC3)C3CCCC3)[nH]c(=O)c2c1C,"23.1 µM [rising, single point]",–
Cc1cn(C)c(CC(=O)N2CCN(c3cccc(C(F)(F)F)c3)CC2)c1C(=O)O,"35.5 µM [falling, single point]",–
CCCCn1c(SCc2ccccn2)nc2c1c(=O)n(C)c(=O)n2C,–,"1.16 µM [rising, full curve, poor fit]"
CCOc1ccc2c(c1)c(N=Nc1cccc(C(=O)O)c1)c(O)n2C,"0.092 µM [falling, full curve]",–
Cc1cc(/C=C(\C#N)C(=O)NC2CCCCCC2)c(C)n1C,"0.058 µM [falling, full curve]",–
O=C(Nc1ccccc1)c1cccc(C(F)(F)F)c1,"0.731 µM [rising, full curve, poor fit]",–
CCCCN(C(=O)C1CCN(C(=O)c2ccccc2C)CC1)c1c(N)n(CCC)c(=O)[nH]c1=O,"23.1 µM [falling, single point]",–
COc1ccc(Nc2c3c(nc4ccccc24)CCC3)c(OC)c1,"2 µM [falling, partial curve]",–
O=C(Cc1c[nH]c2ccccc12)NNC(=O)c1ccccc1,"29.1 µM [rising, single point]",–

# Quoted from the listing:
# `Cc1cn(C)c(CC(=O)N2CCN(c3cccc(C(F)(F)F)c3)CC2)c1C(=O)O` – AC50 [1]: 35.5 µM [falling, single point]
# `CCC(C)(C)n1nnnc1C(c1ccc(O)c(OC)c1)N1CCN(c2nc3ccccc3s2)CC1` (configuration not stated) – AC50 [1]: 20 µM [falling, single point]
# `Cc1ccc(SC(C)c2nc(-c3ccncc3)no2)cc1` (configuration not stated) – AC50 [1]: 20.6 µM [rising, partial curve, poor fit]

# Additional structures follow:

SMILES,AC50 [1],AC50 [2]
O=C(O)Cn1c(SCc2ccccc2)nc2ccccc21,"29.1 µM [falling, single point]",–
COc1ccc(/C=N/O)cc1COc1ccc(NC(C)=O)cc1,"14.6 µM [rising, partial curve, poor fit]",–
NC(=O)CCCc1nc(-c2ccccc2Cl)no1,"7.94 µM [rising, partial curve, poor fit]",–
COc1ccc(N=Cc2cc3c(cc2O)OC(N)=C(C#N)C3c2ccccc2)cc1 (configuration not stated),"7.31 µM [falling, partial curve]","25.9 µM [rising, partial curve, poor fit]"
CC(=O)c1c(Nc2ccccc2)sc(C(=O)c2ccccc2)c1C,"6.51 µM [rising, single point]",–
Cc1ccc2[nH]c(C(=O)N/N=C/c3ccccc3O)c(C)c2c1,"0.708 µM [falling, full curve, poor fit]",–
Cc1ccc(C(C)C)c(OC(=O)/C=C/c2ccccc2)c1,"23.1 µM [rising, partial curve]",–
CN(CC(=O)Nc1ccc(Cl)c(C(F)(F)F)c1)C(=O)c1cn2ccccc2n1,"0.731 µM [rising, full curve]",–
COc1cc(/C=N/Nc2nc3ccccc3[nH]2)cc(Br)c1OCC(=O)N(C)C,"20 µM [falling, partial curve, poor fit]",–
COc1cccc(CN(C(=O)COc2ccccc2[N+](=O)[O-])C2CCS(=O)(=O)C2)c1 (configuration not stated),"15.8 µM [falling, partial curve, poor fit]",–
CN=c1scc(C)n1/N=C/c1ccc(O)c(O)c1O,"29.1 µM [rising, single point]",–
O=C(Nc1ccc(Br)cc1)N1CCc2ccccc2C1,"22.4 µM [falling, single point]",–
COc1ccccc1C(=O)Nc1cccnc1,"20 µM [falling, partial curve, poor fit]",–
COc1ccc(/C=N/OCc2ccc(Br)cc2)c(OC)c1,"4.47 µM [rising, full curve, poor fit]",–
C=CCn1c(SCC(=O)N2CCOCC2)nnc1C(C)NC(=O)c1ccccc1 (configuration not stated),"14.1 µM [rising, partial curve, poor fit]",–
Cc1nc2ccccc2cc1C(=O)NCc1ccc(F)cc1,"10 µM [rising, partial curve, poor fit]",–
Cc1ccccc1C(=O)Oc1ccc(-c2csnn2)cc1,"0.794 µM [rising, full curve, poor fit]",–
CC1Cc2nc(SCC(=O)Nc3ccc(F)cc3F)n(C)c(=O)c2S1 (configuration not stated),"22.4 µM [falling, partial curve, poor fit]",–
Cc1ccc(S(=O)(=O)Nc2ccncc2)c(C)c1N(C)S(=O)(=O)c1ccc(Cl)cc1,"29.1 µM [rising, single point]",–
CCc1ccc(OCC(=O)Nc2nnc(-c3ccco3)s2)cc1,"10 µM [rising, partial curve, poor fit]",–

# Part of the list above in a different format:
SMILES	AC50 [1]	AC50 [2]
CN=c1scc(C)n1/N=C/c1ccc(O)c(O)c1O	29.1 µM [rising, single point]	–
O=C(Nc1ccc(Br)cc1)N1CCc2ccccc2C1	22.4 µM [falling, single point]	–
